# PubChem BioAssay AID686937 | Drosophila RNAi Screening Center | 2013
# Screen: 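Knock-downs that reduce output of a secreted reporter enzyme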 (primary screen)
# System: Drosophila S2 cells expressing secreted horseradish peroxidase
# Reagents: long dsRNA against Drosophila genes
# Duration: about 5.5 days (5 days dsRNA, then 12 h reporter induction)
# Challenge: reporter expression induced after 5 days of dsRNA, read 12 h later; inducer not stated
# Measured: 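After 5 days of dsRNA and 12 h of reporter induction, medium peroxidase read by chemiluminescence and scored as per-plate z-score; higher values mean more reporter released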
# Direction: z-score: higher = more reporter secreted into medium
# In all, the deposit lists about 23,000 reagents; shown is a random part of those that have a named target and a result. 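Reduced-secretion tags in replicate 1 do not always agree with the z-scores; no criterion for assigning the tags was given.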 The numbers tell different reagents against one gene apart. Names joined by + are all predicted targets of the reagent. No sequences are given here. Not stated in the record: the amount of reagent.
The opening 4 entries, to show the layout:
target,reagent,"z-score, replicate 1","z-score, replicate 2","z-score, replicate 3","z-score, replicate 4","phenotype, replicate 1"
CG8851,1,0.55,0.38,,,
Peritrophin-A (Peritrophin A),1,0.3,0.32,,,
ca (claret),1,0.38,0.38,,,
ca (claret),2,0.25,0.4,,,

The listing, repeating the preview:
target,reagent,"z-score, replicate 1","z-score, replicate 2","z-score, replicate 3","z-score, replicate 4","phenotype, replicate 1"
CG8851,1,0.55,0.38,,,
Peritrophin-A (Peritrophin A),1,0.3,0.32,,,
ca (claret),1,0.38,0.38,,,
ca (claret),2,0.25,0.4,,,
ca (claret),3,0.19,0.05,,,
Karl,1,-0.18,0.18,,,
sicily (severe impairment of CI with lengthened youth),1,0.39,0.08,,,
GstE11 (Glutathione S transferase E11),1,0.21,0.15,,,
CG9313,1,0.31,0.43,,,
"MetRS-m (Methionyl-tRNA synthetase, mitochondrial)",1,0.13,0.35,,,
"MetRS-m (Methionyl-tRNA synthetase, mitochondrial)",2,0.41,0.59,,,
CG11961,1,0.38,0.13,,,
tun (tungus),1,0.22,0.19,,,
tun (tungus),2,0.26,0.37,,,
Eglp1 (Entomoglyceroporin 1),1,-0.29,-0.13,,,
CG43329,1,-0.18,0.44,,,
CG4891,1,0.25,0.3,,,
CG12699,1,0.73,0.58,,,
CG12341,1,0.13,0.29,,,
Rtnl2,1,0.23,0.78,,,
Rtnl2,2,-0.39,-0.31,,,
CG14072,1,0.28,0.28,,,
Cyp6g2 (Cytochrome P450 6g2),1,0.21,0.1,,,
CG4210,1,-0.18,0.13,,,
CG34144 (retired record),1,0.05,1.04,,,
CG34144 (retired record),2,-0.44,0,,,
CG34144 (retired record),3,0.56,0.51,,,
CG14205,1,0.51,0.04,,,
CG5347,1,0.39,0.25,,,
CG2247,1,0.21,0.32,,,
Ilp3 (Insulin-like peptide 3),1,0.58,0.45,,,
CG16710,1,0.54,0.59,,,
CG14929,1,-0.21,0.19,,,
CG7182,1,0.54,0.28,,,
CG13226,1,0.24,0.36,,,
tou (toutatis),1,0.26,0.32,,,
tou (toutatis),2,1.64,0.79,,,
CG14190,1,0.66,0.44,,,
CG32533,1,0.12,0.08,,,
CG32533,2,0.31,0.16,,,
cher (cheerio),1,0.35,0.46,,,
Obp56c (Odorant-binding protein 56c),1,0.19,0.51,0.39,0.42,
Obp56c (Odorant-binding protein 56c),2,0.56,-0.24,,,
CtsB (Cathepsin B),1,0.15,0.33,,,
lectin-37Db,1,0.39,0.47,,,
CG5013,1,0.15,0.75,,,
dbe (dribble),1,0.37,0.52,,,
sqd (squid),1,-0.07,0.2,,,
sqd (squid),2,0.68,0.25,,,
sqd (squid),3,-0.52,-0.38,,,
CG42662 + CG30080,1,0.3,0.55,,,
CG7295,1,0.22,0.32,,,
Gr39b (Gustatory receptor 39b),1,0.43,0.29,-0.04,-0.71,
CG15034,1,0.2,0.56,,,
CkIIalpha-i3 (CKII-alpha subunit interactor-3),1,0.02,0.07,,,
CG13625,1,-1.53,-1.42,,,reduced secretion
